Data: PubChem BioAssay AID504834 (National Center for Advancing Translational Sciences (NCATS), 2011)
In all, about 320,000 compounds went through this assay and about 22,000 (6.9%) were called active. This list was built around the results that the source calls inconclusive (neither active nor inactive); the mix of calls is not that of the screen. The call rests on the fitted dose curve; in most records, active means well fitted inhibition curve with a large enough effect; inconclusive means small, poorly fitted or top-dose-only effect, or another doubt; inactive means no such curve, though single readings can be large or run the other way. Potencies beside an inconclusive call are fits to weak or partial responses and may not hold up.

Test: Primary qHTS for delayed death inhibitors of the malarial parasite plastid, 96 hour incubation
Settings: P. falciparum luciferase reporter growth; series mostly up to 28.7 µM
How it was run: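 96 h incubation, 37 C, 5% CO2, of luciferase-reporter P. falciparum-infected RBCs (2% hematocrit, 0.05% parasitemia final) with test compounds; endpoint luminescence.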
Potency means the concentration at half of the fitted maximal effect.

| Structure (SMILES) | Potency |
| --- | --- |
| c1ccc(NCC2OCc3ccccc3CO2)cc1 | inactive |
| CC(C)c1nc(C(=O)N2CCCC(N3CCN(c4cccc(Cl)c4)CC3)C2)cs1 (centres undefined) | active: 3.7 µM |
| CCOC(=O)c1nncc(-c2ccccc2)n1 | inconclusive: 14.7 µM [inhibitor, partial curve, poor fit] |
| C=CCc1ccccc1OCC(O)CN1CCN(c2ccc(C)cc2)CC1 (centres undefined) | active: 9.28 µM |
| COCCOC(=O)c1[nH]c2c(c1C)C(=O)CC(c1cc(OC)ccc1OC)C2 (centres undefined) | inconclusive: 18.5 µM [inhibitor, single point] |
| O=C(O)CCCCCNCc1c(Cl)cccc1Cl | inconclusive: 0.738 µM [inhibitor, full curve, poor fit] |
| O=C(O)CSc1nnc(-c2cccc(S(=O)(=O)N3CCCCC3)c2)o1 | inactive |
| CCc1ccc2nc(N(CCCN(C)C)C(=O)c3ccc(S(=O)(=O)N4CCCC4)cc3)sc2c1 | inconclusive: 18.5 µM [inhibitor, single point] |
| O=C(CCc1nnc2ccc(N3CCC4(CC3)OCCO4)nn12)NCc1ccc(F)cc1 | inactive |
| Cc1cc(-c2csc(NC(=O)c3ccc(=O)n(C)n3)n2)c(C)n1CC1CCCO1 (centres undefined) | active: 7.38 µM |
| COc1cc2c(c3oc(-c4ccccc4)cc(=O)c13)C=CC(C)(C)O2 | inconclusive: 11.7 µM [inhibitor, single point] |
| C/C(N)=C(/C#N)C(=O)COC(=O)c1cc(C)n(-c2ccc(F)cc2)c1C | active: 3.29 µM |
| Cc1ccccc1C(=O)c1c[nH]c(C(=O)NCc2cccs2)c1 | inconclusive: 13.1 µM [inhibitor, partial curve, poor fit] |
| O=C(O)CCc1ccc(-c2ccccc2)n1-c1cccc(O)c1 | inactive |
| CC1(C)CC(=O)C=C(NCc2ccco2)C1 | inconclusive: 13.1 µM [inhibitor, single point] |
| OCC1CCCCN1C(=S)Nc1ccc(Cl)cc1Cl (centres undefined) | inconclusive: 2.62 µM [inhibitor, full curve, poor fit] |
| Cc1nc2nc[nH]n2c(=O)c1CCOC(=O)c1c(F)cccc1F | inconclusive: 0.828 µM [inhibitor, full curve, poor fit] |
| c1ccc2c(c1)CC1CNCc3cccc(c31)S2 (centres undefined) | active: 10.4 µM |
| CC1CCN(CC[C@H]2CCCN2S(=O)(=O)c2cccc(O)c2)CC1 | inactive |
| C(=C\c1ccccc1)/C=N/Nc1nc2ccccc2s1 | inactive |
| O=C(NS(=O)(=O)c1ccccc1)c1cccc(Br)c1 | inconclusive: 10.4 µM [inhibitor, partial curve, poor fit] |
| COc1ccc(CCN=C(NS(=O)(=O)c2ccc(Cl)cc2)c2ccccc2)cc1 | inconclusive: 0.0738 µM [inhibitor, full curve, poor fit] |
| CC(=O)Nc1ccc(SC[C@H](Cc2ccccc2)N2CC[C@@H](C(C)(C)C)CCC2=O)cc1 | inconclusive: 2.08 µM [inhibitor, full curve, poor fit] |
| COc1ccccc1NC(C)=O | inactive |
| Cn1cncc1COC(=O)c1ccc(Cl)cc1 | inactive |

Exported as labelled records: part of the list above
O=C(O)CCCCCNCc1c(Cl)cccc1Cl
  Potency: inconclusive: 0.738 µM [inhibitor, full curve, poor fit]
C(=C\c1ccccc1)/C=N/Nc1nc2ccccc2s1
  Potency: inactive

(further entries)

| Structure (SMILES) | Potency |
| --- | --- |
| Cc1c(CCOC(=O)c2cccc([N+](=O)[O-])c2)sc[n+]1CC(=O)c1ccccc1 | inactive |
| O=C(Nc1ccc(Cl)cc1)N(Cc1cccnc1)Cc1ccco1 | inconclusive: 18.5 µM [inhibitor, single point] |
| C[C@@H]1NC(=O)[C@@]2(C)[C@@H](c3ccccc3)[C@H]3COc4ccc(Cl)cc4[C@@H]3N2C1=O | inconclusive: 4.65 µM [inhibitor, single point] |
| Cc1cccc(NC(=O)C[n+]2ccc(N(C)C)cc2)c1 | inactive |
| Cc1nc2cc(N3CCCCC3)c(NC(=O)c3ccncc3)cc2c(=O)n1Cc1ccccc1 | inconclusive: 13.1 µM [inhibitor, partial curve, poor fit] |
| CCOc1ccc(-c2cc(C(=O)NN3CCN(C)CC3)c3cc(Cl)ccc3n2)cc1 | active: 4.15 µM |
| CC(C)N1CCN(Cc2ccc(OC3CCCC3)cc2)CC1CCO (centres undefined) | active: 11.7 µM |
| O=c1[nH]cc(O)c(=O)[nH]1 | inactive |
| CCCN1CCN(C(=O)CN2C(=O)COc3ccc(S(=O)(=O)N(CC)CC)cc32)CC1 | active: 2.94 µM |
| COc1ccccc1C(=O)NC(CCSC)C(=O)NCCCSc1ccccc1 (centres undefined) | inconclusive: 10.4 µM [inhibitor, partial curve, poor fit] |
| CCOC(=O)C1=C(N)n2c(s/c(=C\c3cccs3)c2=O)=C(C(=O)OCC)C1c1cccs1 (centres undefined) | inconclusive: 0.104 µM [inhibitor, partial curve, poor fit] |
| NC(=O)C1CCCN(C(=S)Nc2ccccc2)C1 (centres undefined) | inactive |
| CCCOc1ccc(C2/C(=C(\O)c3c(C)[nH]c(C(=O)OC)c3C)C(=O)C(=O)N2CCN(C)C)cc1 (centres undefined) | inconclusive: 2.94 µM [inhibitor, single point] |
| Cc1cc2[nH]c(=O)c(=O)[nH]c2cc1S(=O)(=O)NCc1ccccc1 | inactive |
| C(=N\c1nc2ccccc2n1CCN1CCCCC1)/c1ccc2c(c1)OCO2 | inconclusive: 11.7 µM [inhibitor, single point] |
| FC(F)Oc1ccc(-c2csc(NNC3=NCCCCC3)n2)cc1 | inconclusive: 18.5 µM [inhibitor, single point] |
| Cc1ccc(CSCC(=O)N2CCCC2)cc1 | inconclusive: 13.1 µM [inhibitor, partial curve, poor fit] |
| COc1ccc(CN2C(=O)NC3(CCCCCC3)C2=O)cc1F | inactive |
| CCn1c(SCC(=O)c2ccc(C)cc2)nnc1-c1ccncc1 | inconclusive: 18.5 µM [inhibitor, single point] |
| Cc1nn(Cc2ccccc2)c(C)c1/C=N/NC(=O)c1ccncc1 | inactive |
| Cc1cccc(C(=O)OC(C)CN2CCOCC2)c1 (centres undefined) | active: 9.28 µM |
| CN(CC(=O)Nc1ccccc1Oc1ccccc1)Cc1ccccc1F | inconclusive: 18.5 µM [inhibitor, single point] |
| c1ccc2[nH]c(SCc3cn4ccccc4n3)nc2c1 | inactive |
| Cc1ccc2c(CSc3nnnn3C)cc(=O)oc2c1 | inactive |
